# Assay results as given in the supplement of paper PMC6411743.
# ± gives the standard deviation of the averaged measurements. The list shows a part of the results.
# Biological target: T1, A0A087X1S7|P09326 (UniProt P09326)
# T1 sequence (whole entry): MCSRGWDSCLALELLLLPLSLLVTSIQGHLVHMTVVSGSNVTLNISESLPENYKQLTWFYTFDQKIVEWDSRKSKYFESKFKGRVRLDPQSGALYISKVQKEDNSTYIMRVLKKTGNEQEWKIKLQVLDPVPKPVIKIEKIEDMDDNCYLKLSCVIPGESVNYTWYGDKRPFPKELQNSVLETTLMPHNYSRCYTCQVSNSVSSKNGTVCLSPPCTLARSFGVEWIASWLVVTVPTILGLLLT
# Experiment: NP40-soluble protein abundance relative to vehicle (solubility fold change) (ratio); higher = more soluble protein in presence of GTP
# Procedure: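 Solubility proteome profiling in Jurkat crude lysate. Lysate was treated with Mg-GTP (0.1-10 mM) for 10 min at room temperature and 3 min at 37 °C, then solubilised with 0.8% NP40 and benzonase, followed by ultracentrifugation. Proteins were quantified by TMT10 LC-MS/MS; the value is the NP40-soluble abundance relative to the NP40-processed vehicle, from 3 independent experiments.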
compound,measurement,setting,value
Nc1nc2c(ncn2[C@@H]2O[C@H](COP(=O)(O)OP(=O)(O)OP(=O)(O)O)[C@@H](O)[C@H]2O)c(=O)[nH]1 [guanosine triphosphate],NP40-soluble protein abundance,concentration: 0.1mM,0.888 ± 0.061
same,NP40-soluble protein abundance,concentration: 0.5mM,0.896 ± 0.08
same,NP40-soluble protein abundance,concentration: 1mM,0.972 ± 0.092
same,NP40-soluble protein abundance,concentration: 2mM,0.927 ± 0.12
same,NP40-soluble protein abundance,concentration: 4mM,0.901 ± 0.11
same,NP40-soluble protein abundance,concentration: 6mM,0.937 ± 0.1
same,NP40-soluble protein abundance,concentration: 8mM,0.894 ± 0.091
same,NP40-soluble protein abundance,concentration: 10mM,0.931 ± 0.079
